Results published in patent publication US11987583B2, “Fused triazolo-pyrimidine compounds having useful pharmaceutical application” (PIKSci Inc., priority 2017, dated 2024).

Test system: multiple myeloma KMS12E, Non-hodgkin's lymphoma SU-DHL4, T-cell lymphoma Hut-78
Test: Cell viability (Presto Blue), panel of cancer cell lines
Assay type: cell-based
Conditions: Homo sapiens; range over KMS12E, SU-DHL4, Hut-78 and normal PBMCs; 70 hours; read-out: IC50, viability of all cell types
Procedure: Three cancer cell lines, multiple myeloma KMS12E, Non-hodgkin's lymphoma SU-DHL4, T-cell lymphoma Hut-78, and normal human peripheral blood mononuclear cells derived from healthy individual were tested. The cells were plated in 384 well plates in RPMI medium supplemented with 10% fetal bovine serum. Cancer cells were plated at 1000 cells/well and normal cells at 10,000 cells per well in a total volume of 30 uL/well. Immediately after plating, the test compounds were added at […] concentrations: 10 uM-1 uM-0.01 uM-0.001 uM, in duplicate wells for each concentration. The cells were exposed to compounds for 70 hours at 37° C. in humidified incubator with 5% CO2. Cell viability was determined by Presto Blue reagent (Thermo Scientific/Invitrogen).

## CCc1cnn2c(NCc3ccc[n+]([O-])c3)cc(N3CCCC[C@H]3CCO)nc12 [Dinaciclib]
  IC50: 10 to 15 nM
